{"sequences": {"note": "Protein sequences, listed by entry. Tags and fused reporters are not part of them. Lines headed by an entry give the natural chain unless they say otherwise; changes in a name come on top.", "UniProt P53224, whole entry, looked up, stated change not applied": "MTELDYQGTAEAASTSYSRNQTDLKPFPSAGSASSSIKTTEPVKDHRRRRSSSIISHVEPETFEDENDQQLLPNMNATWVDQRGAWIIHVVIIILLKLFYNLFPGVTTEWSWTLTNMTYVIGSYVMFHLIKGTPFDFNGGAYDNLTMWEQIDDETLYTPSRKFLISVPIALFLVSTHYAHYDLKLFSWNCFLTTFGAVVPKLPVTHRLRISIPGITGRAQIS"}, "source": "paper doi:10.1101/2023.02.03.526835", "about": "(bioRxiv, 2023)", "test_in_all_cases": "cryo-EM structure", "key": {"[1]": {"molecular_target": "T1, Lcb1, internally 3xFLAG-tagged after P9 (S. cerevisiae) (UniProt P25045)", "T1 sequence": "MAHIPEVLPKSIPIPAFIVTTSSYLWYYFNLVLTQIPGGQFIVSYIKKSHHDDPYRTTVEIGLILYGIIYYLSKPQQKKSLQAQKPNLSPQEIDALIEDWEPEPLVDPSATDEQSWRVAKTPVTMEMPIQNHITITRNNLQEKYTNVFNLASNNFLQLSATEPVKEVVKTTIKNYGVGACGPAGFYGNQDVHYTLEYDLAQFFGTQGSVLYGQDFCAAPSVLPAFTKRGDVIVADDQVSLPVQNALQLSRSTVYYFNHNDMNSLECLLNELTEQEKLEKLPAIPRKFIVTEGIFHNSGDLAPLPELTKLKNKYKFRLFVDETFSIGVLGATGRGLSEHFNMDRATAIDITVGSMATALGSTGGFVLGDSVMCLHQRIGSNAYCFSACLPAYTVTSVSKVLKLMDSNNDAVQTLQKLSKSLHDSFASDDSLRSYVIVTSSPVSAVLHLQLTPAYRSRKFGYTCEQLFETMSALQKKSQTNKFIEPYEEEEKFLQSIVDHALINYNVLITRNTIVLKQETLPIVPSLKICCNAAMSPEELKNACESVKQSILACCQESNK"}, "Lcb2 (S. cerevisiae) [2]": {"molecular_target": "T2, Lcb2 (S. cerevisiae) (UniProt P40970)", "T2 sequence (chain, pyridoxal 5'-phosphate (PLP) as internal aldimine with K366)": "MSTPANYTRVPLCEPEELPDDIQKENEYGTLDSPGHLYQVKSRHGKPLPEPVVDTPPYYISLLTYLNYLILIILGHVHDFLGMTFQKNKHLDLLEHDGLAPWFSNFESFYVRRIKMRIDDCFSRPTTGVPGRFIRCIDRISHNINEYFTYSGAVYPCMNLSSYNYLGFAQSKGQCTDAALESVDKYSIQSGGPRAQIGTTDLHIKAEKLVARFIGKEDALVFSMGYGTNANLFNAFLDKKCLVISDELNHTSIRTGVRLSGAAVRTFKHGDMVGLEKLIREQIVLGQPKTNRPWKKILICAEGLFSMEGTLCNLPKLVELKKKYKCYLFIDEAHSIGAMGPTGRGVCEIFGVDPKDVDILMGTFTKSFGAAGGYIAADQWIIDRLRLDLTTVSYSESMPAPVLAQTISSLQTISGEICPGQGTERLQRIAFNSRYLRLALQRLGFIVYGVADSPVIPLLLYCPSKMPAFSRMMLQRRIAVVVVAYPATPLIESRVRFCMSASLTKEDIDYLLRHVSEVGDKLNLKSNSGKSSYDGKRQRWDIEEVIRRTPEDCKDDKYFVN"}, "Lcb2 (S. cerevisiae) [3]": {"molecular_target": "T2, Lcb2 (S. cerevisiae)", "remark": "listed apart in the source"}, "[4]": {"molecular_target": "T1, Lcb1, internally 3xFLAG-tagged after P9 (S. cerevisiae)", "remark": "listed apart in the source"}}, "note": "Like-named read-outs stand apart in the source and are kept apart here. Results are given in words; binding and its absence hold for the method and conditions named. Some binding calls cover weakened binding; strength is not graded here. For some assays here: Tags and fused reporters may be left off the sequences shown."}
{"molecule": "Orm1 non-phosphorylatable version (ORM1^AAA; S51A, S52A, S53A) (from UniProt P53224 1-222)", "values": [{"measurement": "binding", "setting": "[1]", "result": "binds"}, {"measurement": "binding", "setting": "Lcb2 (S. cerevisiae) [2]", "result": "binds"}]}
{"molecule": "Tsc3 (protein, UniProt Q3E790 1-80) MTQHKSSMVYIPTTKEAKRRNGKSEGILNTIEEVVEKLYWTYYIHLPFYLMASFDSFFLHVFFLTIFSLSFFGILKYCFL", "values": [{"measurement": "binding", "setting": "Lcb2 (S. cerevisiae) [3]", "result": "binds"}]}
{"molecule": "Lcb2 (enzyme, S. cerevisiae, pyridoxal 5'-phosphate (PLP) as internal aldimine with K366) MSTPANYTRVPLCEPEELPDDIQKENEYGTLDSPGHLYQVKSRHGKPLPEPVVDTPPYYISLLTYLNYLILIILGHVHDFLGMTFQKNKHLDLLEHDGLAPWFSNFESFYVRRIKMRIDDCFSRPTTGVPGRFIRCIDRISHNINEYFTYSGAVYPCMNLSSYNYLGFAQSKGQCTDAALESVDKYSIQSGGPRAQIGTTDLHIKAEKLVARFIGKEDALVFSMGYGTNANLFNAFLDKKCLVISDELNHTSIRTGVRLSGAAVRTFKHGDMVGLEKLIREQIVLGQPKTNRPWKKILICAEGLFSMEGTLCNLPKLVELKKKYKCYLFIDEAHSIGAMGPTGRGVCEIFGVDPKDVDILMGTFTKSFGAAGGYIAADQWIIDRLRLDLTTVSYSESMPAPVLAQTISSLQTISGEICPGQGTERLQRIAFNSRYLRLALQRLGFIVYGVADSPVIPLLLYCPSKMPAFSRMMLQRRIAVVVVAYPATPLIESRVRFCMSASLTKEDIDYLLRHVSEVGDKLNLKSNSGKSSYDGKRQRWDIEEVIRRTPEDCKDDKYFVN", "values": [{"measurement": "binding", "setting": "[4]", "result": "binds"}]}
{"molecule": "Sac1, PI4P phosphatase (enzyme, UniProt P32368 1-623) MTGPIVYVQNADGIFFKLAEGKGTNDAVIHLANQDQGVRVLGAEEFPVQGEVVKIASLMGFIKLKLNRYAIIANTVEETGRFNGHVFYRVLQHSIVSTKFNSRIDSEEAEYIKLLELHLKNSTFYFSYTYDLTNSLQRNEKVGPAASWKTADERFFWNHYLTEDLRNFAHQDPRIDSFIQPVIYGYAKTVDAVLNATPIVLGLITRRSIFRAGTRYFRRGVDKDGNVGNFNETEQILLAENPESEKIHVFSFLQTRGSVPIYWAEINNLKYKPNLVLGENSLDATKKHFDQQKELYGDNYLVNLVNQKGHELPVKEGYESVVHALNDPKIHYVYFDFHHECRKMQWHRVKLLIDHLEKLGLSNEDFFHKVIDSNGNTVEIVNEQHSVVRTNCMDCLDRTNVVQSVLAQWVLQKEFESADVVATGSTWEDNAPLLTSYQNLWADNADAVSVAYSGTGALKTDFTRTGKRTRLGAFNDFLNSASRYYQNNWTDGPRQDSYDLFLGGFRPHTASIKSPFPDRRPVYIQLIPMIICAALTVLGATIFFPKDRFTSSKNLLYFAGASIVLALSTKFMFKNGIQFVNWPKLVDVGFLVVHQTHDKEQQFKGLKYAQSPKFSKPDPLKRD", "values": [{"measurement": "binding", "setting": "Lcb2 (S. cerevisiae) [3]", "result": "binds"}]}
